Source: patent US20080057028A1
No constants are given. Whether binding was seen depends on the method and setting. Binding seen in cells or lysates may run through a third protein. Some results given as binding are weak or reduced against the parent protein; the word gives no strength. For part of these data: Where a sequence is shown, tags or fusion partners need not be part of it.

The chains behind the UniProt entries cited, without tags or fusion partners. Where a name states a change or a piece, a line headed by the entry shows the natural chain unless it says otherwise. A line that says so, or that is headed by a name, gives the form on record, which may keep a tag or linker.
VEGF165 (P15692, form named): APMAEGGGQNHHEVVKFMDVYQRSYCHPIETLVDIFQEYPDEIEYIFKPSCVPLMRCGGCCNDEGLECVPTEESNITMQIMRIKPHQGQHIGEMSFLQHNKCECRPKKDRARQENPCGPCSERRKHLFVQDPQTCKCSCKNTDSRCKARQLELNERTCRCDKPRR
UniProt P49767: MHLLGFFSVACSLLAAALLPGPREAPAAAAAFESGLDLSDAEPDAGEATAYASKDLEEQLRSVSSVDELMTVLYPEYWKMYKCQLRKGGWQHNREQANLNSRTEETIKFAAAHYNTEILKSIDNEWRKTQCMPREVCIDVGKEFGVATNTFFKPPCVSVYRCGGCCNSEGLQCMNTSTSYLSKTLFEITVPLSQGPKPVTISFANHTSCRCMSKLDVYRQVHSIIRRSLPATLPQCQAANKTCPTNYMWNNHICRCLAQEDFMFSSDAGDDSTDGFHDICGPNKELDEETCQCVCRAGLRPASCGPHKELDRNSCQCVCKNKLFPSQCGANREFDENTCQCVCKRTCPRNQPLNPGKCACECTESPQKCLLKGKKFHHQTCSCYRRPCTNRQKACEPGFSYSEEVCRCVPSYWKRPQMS

Columns and labels:
[1] = molecular target: T1, NRP-1-Fc construct (extracellular domain portion of murine NRP-1 fused to the Fc portion of human IgG1) (mouse; human) (UniProt P97333); assay: co-precipitation of 35S-labeled VEGF165 medium with NRP-1-IgG, with and without heparin
T1 sequence: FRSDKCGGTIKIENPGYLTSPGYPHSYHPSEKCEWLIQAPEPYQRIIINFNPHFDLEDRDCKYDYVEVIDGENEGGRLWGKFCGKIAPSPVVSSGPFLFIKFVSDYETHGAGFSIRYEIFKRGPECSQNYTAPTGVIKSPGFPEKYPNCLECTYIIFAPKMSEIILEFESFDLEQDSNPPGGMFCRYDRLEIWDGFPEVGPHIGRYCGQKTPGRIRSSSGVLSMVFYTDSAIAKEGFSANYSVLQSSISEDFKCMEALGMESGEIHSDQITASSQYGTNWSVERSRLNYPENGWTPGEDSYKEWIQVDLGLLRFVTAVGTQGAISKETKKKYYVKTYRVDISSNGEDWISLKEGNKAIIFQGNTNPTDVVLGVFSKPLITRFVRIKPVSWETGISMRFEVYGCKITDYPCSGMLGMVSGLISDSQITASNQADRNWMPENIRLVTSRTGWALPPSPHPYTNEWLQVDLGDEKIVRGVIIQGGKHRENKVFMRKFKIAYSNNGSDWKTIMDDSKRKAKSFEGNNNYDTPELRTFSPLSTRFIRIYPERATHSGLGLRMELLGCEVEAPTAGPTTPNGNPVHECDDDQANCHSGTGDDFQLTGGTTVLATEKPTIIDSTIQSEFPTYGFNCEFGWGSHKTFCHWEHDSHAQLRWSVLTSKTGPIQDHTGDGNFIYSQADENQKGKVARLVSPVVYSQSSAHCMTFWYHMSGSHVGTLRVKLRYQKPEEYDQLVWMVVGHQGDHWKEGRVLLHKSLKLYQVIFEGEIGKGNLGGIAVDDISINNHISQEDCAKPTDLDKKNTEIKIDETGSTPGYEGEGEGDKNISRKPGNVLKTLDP

[2] = molecular target: T1, NRP-1-Fc construct (extracellular domain portion of murine NRP-1 fused to the Fc portion of human IgG1) (mouse; human); assay: co-precipitation of 35S-labeled VEGF-C medium with NRP-1-IgG on Protein A-Sepharose, SDS-PAGE
[3] = molecular target: hNRP-2 a17-IgG fusion protein (extracellular domain of human neuropilin-2, a17 isoform, fused to the human IgG1 Fc tail) (human) [IgG part: P01857]; assay: co-precipitation of 35S-labeled VEGF-C medium with hNRP-2 a17-IgG on Protein A-Sepharose, SDS-PAGE

Substance: VEGF165 (from UniProt P15692 27-191) (ligand)
- binding [1]: binds

Substance: VEGF-C 29 kD isoform (partially processed form of human VEGF-C) (from UniProt P49767 32-227) (ligand)
- binding [2]: binds
- binding [3]: binds
